Measured values: article PMC13385793

Chains of the proteins cited; added tags and fusions are not shown.
UniProt Q9ULX9: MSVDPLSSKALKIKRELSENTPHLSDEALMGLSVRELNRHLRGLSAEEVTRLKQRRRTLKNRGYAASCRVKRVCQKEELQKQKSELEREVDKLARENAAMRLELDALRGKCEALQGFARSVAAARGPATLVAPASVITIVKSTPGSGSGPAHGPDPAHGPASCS
UniProt O60675: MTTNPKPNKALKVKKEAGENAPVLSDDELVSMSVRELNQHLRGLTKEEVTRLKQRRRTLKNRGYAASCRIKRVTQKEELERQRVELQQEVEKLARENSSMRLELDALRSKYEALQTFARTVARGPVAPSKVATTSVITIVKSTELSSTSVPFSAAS

Experiments:
[1] = biological target: MYC-DDK-tagged MAFF (overexpressed) (human) (UniProt Q9ULX9); assay: co-IP; MAFG, MAFF and MAFK compared for co-IP with MITF, normalized co-IP efficiency (Supplementary Fig. 13j, k); cells not given
[2] = biological target: MYC-DDK-tagged MAFK (overexpressed) (human) (UniProt O60675); assay: as above

“MITF (microphthalmia-associated transcription factor), endogenous (from UniProt O75030-9)” was tested, and the binding [1] was “binds” and the binding [2] was “binds”.

Results are given in words; binding and its absence hold for the method and conditions named. In cells and extracts the contact can be indirect. Binding can be weak; no strength is given.
